PubChem BioAssay AID1259254, NCATS | 2017
Test: 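Gene knock-downs that lead to re-replication, shown by excess G2 DNA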 (primary screen). Cell system: human HCT116 colorectal cancer cells. Reagent: single siRNA against human genes. Duration: 3 days. Measurement: 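Nuclei stained with Hoechst and imaged; cell-cycle phase assigned by DNA content; G2 share scaled per plate, non-targeting siRNA 0%, GMNN siRNA 100%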. Direction: G2 robust z-score and G2 cells, % of GMNN control: higher = more G2 cells, more excess DNA replication; raw share of cells in G2: higher = larger share of cells with G2 DNA content. Rule for the call: 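Active siRNAs have a G2 robust z of 5 or more median absolute deviations over the median, which in these data means about 38% or higher of GMNN control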.
In all, the deposit lists about 59,000 reagents; below is an unselected part. Over the whole deposit, about 1,550 (2.6%) were called active. 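G2 share is only a proxy for re-replication; each gene was hit by three separate siRNAs, and active genes were retested.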 Raw values are not corrected between plates. The numbers tell different reagents against one gene apart. The record does not give: the amount of reagent.

| gene | siRNA no. | G2 robust z-score | G2 cells, % of GMNN control | raw share of cells in G2 (%) | activity call |
| --- | --- | --- | --- | --- | --- |
| TMEM81 (transmembrane protein 81) | 1 | 0.88 | 9.16 | 6.91 | inactive |
| TMEM81 (transmembrane protein 81) | 2 | -0.246 | 1.24 | 3.94 | inactive |
| TMEM81 (transmembrane protein 81) | 3 | 0.549 | 6.83 | 7.56 | inactive |
| TRIM46 (tripartite motif containing 46) | 1 | 4.02 | 31.3 | 18.5 | inactive |
| TRIM46 (tripartite motif containing 46) | 2 | 0.455 | 6.17 | 6.43 | inactive |
| TRIM46 (tripartite motif containing 46) | 3 | 7.53 | 56 | 25.5 | active |
| ZBED8 (zinc finger BED-type containing 8) | 1 | 0.591 | 7.12 | 7.68 | inactive |
| ZBED8 (zinc finger BED-type containing 8) | 2 | -0.862 | -3.1 | 3.22 | inactive |
| ZBED8 (zinc finger BED-type containing 8) | 3 | -1.09 | -4.7 | 1.46 | inactive |
| BMS1P11 (BMS1 pseudogene 11) | 1 | 0.208 | 4.43 | 4.86 | inactive |
| BMS1P11 (BMS1 pseudogene 11) | 2 | -0.901 | -3.37 | 2.16 | inactive |
| BMS1P11 (BMS1 pseudogene 11) | 3 | -0.881 | -3.23 | 2.41 | inactive |
| FOXN1 (forkhead box N1) | 1 | 1.85 | 16 | 10.4 | inactive |
| FOXN1 (forkhead box N1) | 2 | -1.28 | -6.01 | 3.15 | inactive |
| FOXN1 (forkhead box N1) | 3 | -0.633 | -1.49 | 3.86 | inactive |
| TIPE1 (TNF alpha induced protein 8 like 1) | 1 | 0.781 | 8.46 | 5.79 | inactive |
| TIPE1 (TNF alpha induced protein 8 like 1) | 2 | 0.409 | 5.85 | 4.7 | inactive |
| TIPE1 (TNF alpha induced protein 8 like 1) | 3 | -0.619 | -1.38 | 3.65 | inactive |
| MIA2 (MIA SH3 domain ER export factor 2) | 1 | -0.0712 | 2.47 | 5.08 | inactive |
| MIA2 (MIA SH3 domain ER export factor 2) | 2 | 0.395 | 5.75 | 5.04 | inactive |
| MIA2 (MIA SH3 domain ER export factor 2) | 3 | 2.09 | 17.7 | 6.99 | inactive |
| MIA2 (MIA SH3 domain ER export factor 2) | 4 | 0.525 | 6.66 | 7.8 | inactive |
| MIA2 (MIA SH3 domain ER export factor 2) | 5 | 1.03 | 10.2 | 8.24 | inactive |
| MIA2 (MIA SH3 domain ER export factor 2) | 6 | 0.28 | 4.93 | 5.14 | inactive |
| HAUS7 (HAUS augmin like complex subunit 7) | 1 | 1.08 | 10.6 | 8.58 | inactive |
| HAUS7 (HAUS augmin like complex subunit 7) | 2 | 1.14 | 11 | 8.7 | inactive |
| HAUS7 (HAUS augmin like complex subunit 7) | 3 | 1.77 | 15.4 | 8.06 | inactive |
| ZNF583 (zinc finger protein 583) | 1 | 0.0508 | 3.32 | 4.23 | inactive |
| ZNF583 (zinc finger protein 583) | 2 | -0.041 | 2.68 | 4.1 | inactive |
| ZNF583 (zinc finger protein 583) | 3 | 0.0471 | 3.3 | 4.68 | inactive |
| ALX3 (ALX homeobox 3) | 1 | -0.485 | -0.447 | 4.91 | inactive |
| ALX3 (ALX homeobox 3) | 2 | 0.687 | 7.8 | 7.38 | inactive |
| ALX3 (ALX homeobox 3) | 3 | 5.76 | 43.5 | 20.2 | active |
| MARK2P10 (MARK2 pseudogene 10) | 1 | 2.74 | 22.2 | 11.9 | inactive |
| MARK2P10 (MARK2 pseudogene 10) | 2 | -0.867 | -3.13 | 2.27 | inactive |
| MARK2P10 (MARK2 pseudogene 10) | 3 | -0.252 | 1.2 | 5.29 | inactive |
| CTSE (cathepsin E) | 1 | 3.83 | 29.9 | 16 | inactive |
| CTSE (cathepsin E) | 2 | -0.00247 | 2.95 | 5.95 | inactive |
| CTSE (cathepsin E) | 3 | -0.0726 | 2.46 | 4.83 | inactive |
| TCEAL6 (transcription elongation factor A like 6) | 1 | 1.85 | 16 | 9.32 | inactive |
| TCEAL6 (transcription elongation factor A like 6) | 2 | -0.0677 | 2.49 | 3.79 | inactive |
| TCEAL6 (transcription elongation factor A like 6) | 3 | -0.0986 | 2.27 | 3.48 | inactive |
| TECTA (tectorin alpha) | 1 | -0.495 | -0.518 | 4.9 | inactive |
| TECTA (tectorin alpha) | 2 | 0.588 | 7.11 | 6.71 | inactive |
| TECTA (tectorin alpha) | 3 | 1.09 | 10.7 | 7.12 | inactive |
| VMA22 (vacuolar ATPase assembly factor VMA22) | 1 | -0.0587 | 2.55 | 4.96 | inactive |
| VMA22 (vacuolar ATPase assembly factor VMA22) | 2 | 5.13 | 39 | 15 | active |
| VMA22 (vacuolar ATPase assembly factor VMA22) | 3 | -1.07 | -4.59 | 1.01 | inactive |
| LCE3C (late cornified envelope 3C) | 1 | -0.481 | -0.418 | 3.08 | inactive |
| LCE3C (late cornified envelope 3C) | 2 | -0.251 | 1.2 | 4.67 | inactive |
| LCE3C (late cornified envelope 3C) | 3 | -0.952 | -3.73 | 2.7 | inactive |
| TMEM63A (transmembrane protein 63A) | 1 | -0.182 | 1.69 | 6.09 | inactive |
| TMEM63A (transmembrane protein 63A) | 2 | 0.344 | 5.39 | 6.19 | inactive |
| TMEM63A (transmembrane protein 63A) | 3 | -0.339 | 0.579 | 3.62 | inactive |

10 of these entries, set out differently:
MIA2 (MIA SH3 domain ER export factor 2) #6 — G2 robust z-score = 0.28; G2 cells, % of GMNN control = 4.93; raw share of cells in G2 (%) = 5.14; activity call = inactive
HAUS7 (HAUS augmin like complex subunit 7) #1 — G2 robust z-score = 1.08; G2 cells, % of GMNN control = 10.6; raw share of cells in G2 (%) = 8.58; activity call = inactive
HAUS7 (HAUS augmin like complex subunit 7) #2 — G2 robust z-score = 1.14; G2 cells, % of GMNN control = 11; raw share of cells in G2 (%) = 8.7; activity call = inactive
HAUS7 (HAUS augmin like complex subunit 7) #3 — G2 robust z-score = 1.77; G2 cells, % of GMNN control = 15.4; raw share of cells in G2 (%) = 8.06; activity call = inactive
ZNF583 (zinc finger protein 583) #1 — G2 robust z-score = 0.0508; G2 cells, % of GMNN control = 3.32; raw share of cells in G2 (%) = 4.23; activity call = inactive
ZNF583 (zinc finger protein 583) #2 — G2 robust z-score = -0.041; G2 cells, % of GMNN control = 2.68; raw share of cells in G2 (%) = 4.1; activity call = inactive
ZNF583 (zinc finger protein 583) #3 — G2 robust z-score = 0.0471; G2 cells, % of GMNN control = 3.3; raw share of cells in G2 (%) = 4.68; activity call = inactive
ALX3 (ALX homeobox 3) #1 — G2 robust z-score = -0.485; G2 cells, % of GMNN control = -0.447; raw share of cells in G2 (%) = 4.91; activity call = inactive
ALX3 (ALX homeobox 3) #2 — G2 robust z-score = 0.687; G2 cells, % of GMNN control = 7.8; raw share of cells in G2 (%) = 7.38; activity call = inactive
ALX3 (ALX homeobox 3) #3 — G2 robust z-score = 5.76; G2 cells, % of GMNN control = 43.5; raw share of cells in G2 (%) = 20.2; activity call = active

The results go on:
| gene | siRNA no. | G2 robust z-score | G2 cells, % of GMNN control | raw share of cells in G2 (%) | activity call |
| --- | --- | --- | --- | --- | --- |
| JUN (Jun proto-oncogene, AP-1 transcription factor subunit) | 1 | 2.21 | 18.5 | 11.8 | inactive |
| JUN (Jun proto-oncogene, AP-1 transcription factor subunit) | 2 | 0.485 | 6.38 | 6.54 | inactive |
| JUN (Jun proto-oncogene, AP-1 transcription factor subunit) | 3 | -1.28 | -6.05 | 3.38 | inactive |
| PTER (phosphotriesterase related) | 1 | -0.114 | 2.17 | 5.48 | inactive |
| PTER (phosphotriesterase related) | 2 | -0.672 | -1.76 | 4.65 | inactive |
| PTER (phosphotriesterase related) | 3 | 0.73 | 8.1 | 8.22 | inactive |
| MORF4 (mortality factor 4 (pseudogene)) | 1 | -0.991 | -4 | 3.96 | inactive |
| MORF4 (mortality factor 4 (pseudogene)) | 2 | 1.34 | 12.4 | 11.4 | inactive |
| MORF4 (mortality factor 4 (pseudogene)) | 3 | 0.068 | 3.45 | 4.96 | inactive |
| PDZD8 (PDZ domain containing 8) | 1 | 0.327 | 5.27 | 4.9 | inactive |
| PDZD8 (PDZ domain containing 8) | 2 | -0.602 | -1.27 | 2.72 | inactive |
| PDZD8 (PDZ domain containing 8) | 3 | -0.197 | 1.58 | 4.08 | inactive |
| INTS4 (integrator complex subunit 4) | 1 | -0.11 | 2.19 | 5.01 | inactive |
| INTS4 (integrator complex subunit 4) | 2 | 0.45 | 6.14 | 4.92 | inactive |
| INTS4 (integrator complex subunit 4) | 3 | -0.383 | 0.273 | 3.01 | inactive |
| AAMP (angio associated migratory cell protein) | 1 | 3.16 | 25.2 | 17.1 | inactive |
| AAMP (angio associated migratory cell protein) | 2 | 2.02 | 17.2 | 10.4 | inactive |
| AAMP (angio associated migratory cell protein) | 3 | 0.0343 | 3.21 | 4.78 | inactive |
| GK5 (glycerol kinase 5) | 1 | -1.54 | -7.87 | 3.14 | inactive |
| GK5 (glycerol kinase 5) | 2 | -0.672 | -1.76 | 4.55 | inactive |
| GK5 (glycerol kinase 5) | 3 | 9.21 | 67.8 | 25.4 | active |
| TSSK3 (testis specific serine kinase 3) | 1 | -0.137 | 2 | 6.21 | inactive |
| TSSK3 (testis specific serine kinase 3) | 2 | -0.169 | 1.78 | 5.84 | inactive |
| TSSK3 (testis specific serine kinase 3) | 3 | -0.0244 | 2.8 | 4.58 | inactive |
| FAM181A (family with sequence similarity 181 member A) | 1 | 1.22 | 11.6 | 6.59 | inactive |
| FAM181A (family with sequence similarity 181 member A) | 2 | -0.3 | 0.858 | 4.45 | inactive |
| FAM181A (family with sequence similarity 181 member A) | 3 | -0.849 | -3.01 | 2.06 | inactive |
| FAM120B (family with sequence similarity 120 member B) | 1 | 2.82 | 22.8 | 11.7 | inactive |
| FAM120B (family with sequence similarity 120 member B) | 2 | 0.821 | 8.75 | 6.05 | inactive |
| FAM120B (family with sequence similarity 120 member B) | 3 | 4.03 | 31.3 | 11.9 | inactive |
| ZNF607 (zinc finger protein 607) | 1 | -0.0416 | 2.67 | 3.74 | inactive |
| ZNF607 (zinc finger protein 607) | 2 | 0.834 | 8.84 | 9.9 | inactive |
| ZNF607 (zinc finger protein 607) | 3 | -0.0805 | 2.4 | 4.39 | inactive |
